Test results as given in patent publication US20030049807A1, “Micro-organism possessing enantioselective and regioselective nitrile hydratase/amidase activities” (priority 2001, published 2003).
At least one read-out could not be matched to a standard name with certainty.

System: nitrile hydratase/amidase activity of bacterial pellet of strain NCIMB 41108
Experiment: Enzymatic activity of the whole-cell biocatalyst (wet bacterial pellet) towards nitrile/amide substrates, HPLC or GC
Type: cell-based, Agrobacterium radiobacter 30″60
Conditions: 30° C.
Procedure: The enzymatic activity was evaluated using a bacterial pellet obtained after fermentation for 48 hours in fermentation medium as described below. Briefly, the culture was amplified from a single colony to begin with in a small volume of inoculating medium and then, for preparative purposes, in 100 ml of fermentation medium.
Fermentation medium: MgSO4 (0.5 g l^−1), ,CaCl2.6H2O (0.1 g l^−1), FeSO4 (0.4 g l^−1), CoCl2 (0.1 g l^−1), MnSO4 (0.01 g l^−1), (NH4)2SO4 (5 g l^−1), Yeast Extract (10 g l^31 1). The inducer, or the inducers, were added to the fermentation medium alone or in combination, sterilely, to a final concentration comprised of between 0.5-5 g/L. In particular, if not stated differently, valeronitrile, N-butyronitrile, isobutyronitrile and ε-caprolactam were used at a concentration respectively of 2.5 g/l and added in a single solution at the start of the process. To measure the basal activity of the strain 41108, no inducer was added to the fermentation medium.
Inoculation. 10 ml of the pre-inoculation, was inoculated in 100 ml of fermentation medium containing or lacking inducer, in a 0.5 L flask and grown at 30° C., for 24-72 hours, with agitation at 300 rpm. […]
Reaction scheme. […] At preset time intervals, aliquots of the mixture were sterilely removed with a syringe, using a Minisart RC 25 filter 0,22 μm (Sartorius, Germany) and directly analysed by HPLC. The enzymatic activity was determined by the mean activity measured in the initial, linear phase of the conversion curve, relative to the wet weight of the bacterial paste. […]
Evaluation of the conversion percentages and of the enantiomeric excess. The percentage conversion of the substrate was measured by reverse phase HPLC using a reverse phase column of dimensions: 250×4.6 mm; 10 μm (Lichrosorb 10 RP18), and phosphate buffer at various percentages (10 mM, pH 2.5 e 3.5) with acetonitrile at 40 or 50% depending on the molecule to be detected. […] The e.e. values of the reaction products obtained from benzoylphenylpropionitrile were determined by HPLC fitted with a chiral column (dimensions: 100×4 mm; Chromtech AGP-column) and phosphate buffer used as eluent (10 mM, pH 7.0) with isopropanol (1%, v/v) and dimethyloctylamine (0,02%, v/v). Enantiomeric excess of α-phenylpropionic acid was determined by HPLC on the same column (100×4 mm; Chromtech AGP-column), using phosphate buffer as eluent (20 mM, pH 5.0, ) with dimethyloctylamine (0.04%, v/v). The e.e. values of the reaction products obtained from α-methyl-4-(2-thienylcarbonyl)-benzene-acetonitrile were determined by HPLC fitted with a chiral column (dimensions: 100×4 mm; Chromtech AGP-column) and potassium phosphate buffer used as eluent (20 mM, pH 7.0) with dimethyloctylamine (0,1%, v/v). […]

Structure (SMILES): N#Cc1ccccc1 [benzonitrile]
- enzymatic activity (pellet induced with valeronitrile 0,25%, 50 mg substrate, 250 mg wet pellet, 17 hours): 1.14 IU g^−1 of wet cells

Structure (SMILES): N#CCC(CC#N)c1ccccc1 [3-phenyl-pentandinitrile]
- enzymatic activity (pellet induced with valeronitrile 0,2%, 100 mg substrate, 500 mg wet pellet, 4 hours): 4.89 IU g^−1 of wet cells

Structure (SMILES): CCCC(C)C#N (stereo not shown) [2-methyl-pentanonitrile]
- enzymatic activity (pellet induced with valeronitrile 0,25%, 100 mg substrate, 100 mg wet pellet, 4 hours, gas chromatography): 35.9 IU g^−1 of wet cells

Structure (SMILES): CC(C#N)c1ccccc1 (stereo not drawn) [α-methylbenzyl cyanide]
- enzymatic activity (pellet induced with valeronitrile and ε-caprolactam 0,25%, 100 mg substrate, 100 mg wet pellet, 8 hours): 15.88 IU g^−1 of wet cells
